Results as given in PMC4373798.
These are yes or no findings as the source states them, for the method shown. In cells and extracts the contact can be indirect. Here binding means that the protein was enriched with, or labelled near, the bait; the list need not be complete.

Sequences of proteins named here, by UniProt entry; tags and fusion partners are left off.
UniProt P26231: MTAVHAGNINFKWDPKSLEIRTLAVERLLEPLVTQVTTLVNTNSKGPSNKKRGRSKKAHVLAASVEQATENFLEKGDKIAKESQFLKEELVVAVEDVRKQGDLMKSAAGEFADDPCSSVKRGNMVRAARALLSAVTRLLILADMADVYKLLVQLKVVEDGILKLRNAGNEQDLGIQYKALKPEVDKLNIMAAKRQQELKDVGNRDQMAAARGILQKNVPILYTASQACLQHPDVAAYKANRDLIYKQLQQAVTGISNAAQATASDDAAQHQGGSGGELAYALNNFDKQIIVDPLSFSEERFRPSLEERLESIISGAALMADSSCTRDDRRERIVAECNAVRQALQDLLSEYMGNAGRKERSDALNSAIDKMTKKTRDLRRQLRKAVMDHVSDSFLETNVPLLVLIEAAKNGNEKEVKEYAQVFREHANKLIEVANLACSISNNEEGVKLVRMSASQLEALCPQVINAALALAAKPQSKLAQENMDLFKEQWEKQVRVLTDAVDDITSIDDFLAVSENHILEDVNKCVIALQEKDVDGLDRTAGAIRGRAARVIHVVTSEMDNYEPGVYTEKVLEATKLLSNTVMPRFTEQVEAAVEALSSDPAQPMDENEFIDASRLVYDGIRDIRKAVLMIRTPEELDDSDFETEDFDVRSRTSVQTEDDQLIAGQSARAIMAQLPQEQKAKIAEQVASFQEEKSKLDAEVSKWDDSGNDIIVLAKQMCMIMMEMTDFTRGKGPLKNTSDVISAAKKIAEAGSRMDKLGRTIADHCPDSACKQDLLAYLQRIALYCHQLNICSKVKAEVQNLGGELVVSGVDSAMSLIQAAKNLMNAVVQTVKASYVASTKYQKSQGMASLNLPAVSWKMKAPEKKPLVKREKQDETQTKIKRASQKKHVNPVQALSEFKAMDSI
UniProt B6V8E6: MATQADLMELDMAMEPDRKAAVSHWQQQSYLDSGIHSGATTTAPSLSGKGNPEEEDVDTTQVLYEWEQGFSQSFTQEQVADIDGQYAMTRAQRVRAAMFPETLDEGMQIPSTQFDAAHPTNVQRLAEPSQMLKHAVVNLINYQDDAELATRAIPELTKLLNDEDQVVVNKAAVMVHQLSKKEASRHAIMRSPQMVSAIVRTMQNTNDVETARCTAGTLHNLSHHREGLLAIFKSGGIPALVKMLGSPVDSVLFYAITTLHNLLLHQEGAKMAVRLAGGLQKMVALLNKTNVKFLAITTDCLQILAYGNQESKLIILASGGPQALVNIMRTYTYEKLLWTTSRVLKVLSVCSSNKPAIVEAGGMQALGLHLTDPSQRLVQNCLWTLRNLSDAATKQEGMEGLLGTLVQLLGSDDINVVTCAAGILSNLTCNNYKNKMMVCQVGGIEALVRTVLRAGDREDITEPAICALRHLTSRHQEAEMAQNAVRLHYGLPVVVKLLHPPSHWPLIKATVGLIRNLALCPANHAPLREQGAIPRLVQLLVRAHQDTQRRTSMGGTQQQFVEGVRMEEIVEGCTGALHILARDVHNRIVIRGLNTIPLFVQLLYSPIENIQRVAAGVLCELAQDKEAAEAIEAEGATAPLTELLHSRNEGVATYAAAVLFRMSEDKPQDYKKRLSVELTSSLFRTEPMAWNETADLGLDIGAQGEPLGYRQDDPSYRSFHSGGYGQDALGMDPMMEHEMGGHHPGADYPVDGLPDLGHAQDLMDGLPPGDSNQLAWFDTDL

Tests used:
[1] = molecular target: GFP-tagged BirA*-α-catenin (GFP-BirA*-α-catenin fusion with epithelia-specific α-catenin) (UniProt P26231); test: proximity labelling; BirA*-α-catenin MDCK cells in PDMS stretch chambers without mechanical perturbation; standard protocol, streptavidin beads washed with 2% SDS; Western blot
[2] = molecular target: GFP-tagged BirA*-α-catenin (GFP-BirA*-α-catenin fusion with epithelia-specific α-catenin) (UniProt P26231); test: proximity labelling; BirA*-α-catenin MDCK cells on a P150 dish, 50 μM biotin; lysis in 0.2% SDS RIPA; streptavidin beads in 0.1% SDS, washed with 2% SDS; Western blot of the bead fraction
[3] = molecular target: GFP-tagged BirA*-α-catenin (GFP-BirA*-α-catenin fusion with epithelia-specific α-catenin) (UniProt P26231); test: proximity labelling; biotinylation read on immuno-precipitates (E-cadherin or myosin IIA antibody, 0.1% SDS wash) by streptavidin-HRP blot; control and stretched cells

**Q.** Which binding [1] does the source give for β-catenin (from UniProt B6V8E6 1-781) here?
**A.** binds weakly

**Q.** And the binding [2]?
**A.** binds

**Q.** And the binding [3]?
**A.** binds
